Assay: general procedure: Fmoc solid-phase peptide synthesis; rink amide MBHA LL resin; HATU, DIPEA
Conditions: whole synthesis

## DOTA-(DGlu)5-DGlu-Ψ[Tz]-Ala-Tyr-Ψ[Tz]-Gly-Trp-Nle-Asp-Phe-NH2
Scale 0.046 mmol
  final purity (method not given): > 99%
  isolated yield: 11.5%

## DOTA-(DGlu)5-DGlu-Ala-Tyr-Ψ[Tz]-Gly-Trp-Nle-Asp-Phe-NH2
Scale 0.032 mmol
  final purity (method not given): 98.1%
  isolated yield: 19.6%

## DOTA-DGlu-Ψ[Tz]-Ala-Ψ[Tz]-Tyr-Ψ[Tz]-Gly-Trp-Nle-Asp-Phe-NH2
Scale 0.037 mmol
  final purity (method not given): > 99%
  isolated yield: 16.1%

## DOTA-DGlu-Ala-Tyr-Ψ[Tz]-Gly-Trp-Nle-Asp-Phe-NH2
Scale 0.041 mmol
  final purity (method not given): > 99%
  isolated yield: 13.9%

## DOTA-DGlu-Ψ[Tz]-Ala-Tyr-Ψ[Tz]-Gly-Trp-Nle-Asp-Phe-NH2
Scale 0.0528 mmol
  final purity (method not given): 97.9%
  isolated yield: 10.1%

— patent publication EP3868394A1 (PAUL SCHERRER INSTITUT, priority 2020, dated 2021)
